For at least one compound, name, drawing or mass did not settle the structure.
Key:
IL-6 = IL-6 expression in RAW 264 macrophages; format: cell-based; settings: RAW 264 macrophages cultured alone; compound added to calcitriol
Experimental: RAW 264 macrophages and 3T3-L1 preadipocytes (American Type Culture Collection) were incubated at a density of 8000 cells/cm2 (10 cm2 dish) and grown in Dulbecco's modified Eagle's medium (DMEM) containing 10% FBS and antibiotics (adipocyte medium) at 37° C. in 5% CO2 in air. Confluent 3T3-L1 preadipocytes were induced to differentiate with a standard differentiation medium consisting of DMEM-F10 (1:1, vol/vol) medium supplemented with 1% FBS, 1 μM dexamethasone, IBMX (0.5 mM) and antibiotics (1% Penicillin-Streptomycin). Preadipocytes were maintained in this differentiation medium for 3 days and subsequently cultured in adipocyte medium. […]
Cells were washed with fresh adipocyte medium, re-fed with medium containing the indicated treatments, and incubated at 37° C. in 5% CO2 for 48 hours before analysis. Cell viability was measured via trypan blue exclusion.
Human adipocytes (Zen-Bio, Inc.), 3T3-L1 adipocytes, RAW264 macrophages were obtained and co-cultured by using transwell inserts with 0.4 μm porous membranes (Corning) to separate adipocytes and macrophages. All data are expressed as mean±SEM. Data were evaluated for statistical significance by analysis of one-way or two-way variance (ANOVA; means with different letter differ, p<0.05). […]

cyclin A = test: Cyclin A expression in cultured adipocytes; format: cell-based, mouse; settings: compound plus glucose 30 mmol/L, 48 hours
Experimental: 3T3-L1 preadipocytes were incubated at a density of 8000 cells/cm^2 (10 cm^2 dish) and grown in Dulbecco's modified Eagle's medium (DMEM) containing 10% FBS and antibiotics (adipocyte medium) at 37° C. in 5% CO2 in air. Confluent preadipocytes were induced to differentiate with a standard differentiation medium consisting of DMEM-F10 (1:1, vol/vol) medium supplemented with 1% FBS, 1 μM dexamethasone, IBMX (0.5 mM) and antibiotics (1% Penicillin-Streptomycin). Preadipocytes were maintained in this differentiation medium for 3 days and subsequently cultured in adipocyte medium. Cultures were re-fed every 2-3 days to allow 90% of cells to reach full differentiation before conducting chemical treatment. Chemicals were freshly diluted in adipocyte medium before treatment. […] Cell viability was measured via trypan blue exclusion. Adipocyte 18s, cyclin A, NADPH oxidase, and UCP2 were quantitatively measured using a Smart Cycler Real Time PCR System (Cepheid, Sunnyvale, Calif.) with a TaqMan 1000 Core Reagent Kit (Applied Biosystems, Branchburg, N.J.). […] Reactions of quantitative RT-PCR for standards and unknown samples were also performed according to the instructions of Smart Cycler System (Cepheid, Sunnyvale, Calif.) and TaqMan Real Time PCR Core Kit (Applied Biosystems, Branchburg, N.J.). The mRNA quantitation for each sample was further normalized using the corresponding 18s quantitation.

C2C12 myotubes = test: IL-15 release by myotubes (ELISA); format: cell-based, murine; settings: 48 hours
Experimental: IL-15 release in the medium was determined using ELISA. Data are corrected for DNA content. Values are presented as mean±SEM, n=6. Means with different letter differ with p<0.05.

3T3-L1 adipocytes = test: Mitochondrial membrane potential (JC-1); format: cell-based, mouse; settings: nifedipine 10 μmol/L plus H2O2
Experimental: 3T3-L1 preadipocytes were incubated at a density of 8000 cells/cm^2 (10 cm^2 dish) and grown in Dulbecco's modified Eagle's medium (DMEM) containing 10% FBS and antibiotics (adipocyte medium) at 37° C. in 5% CO2 in air. Confluent preadipocytes were induced to differentiate with a standard differentiation medium consisting of DMEM-F10 (1:1, vol/vol) medium supplemented with 1% FBS, 1 μM dexamethasone, IBMX (0.5 mM) and antibiotics (1% Penicillin-Streptomycin). Preadipocytes were maintained in this differentiation medium for 3 days and subsequently cultured in adipocyte medium. Cultures were re-fed every 2-3 days to allow 90% of cells to reach full differentiation before conducting chemical treatment. Chemicals were freshly diluted in adipocyte medium before treatment. […] Cell viability was measured via trypan blue exclusion.
Mitochondrial membrane potential was analyzed fluorometrically with a lipophilic cationic dye JC-1 (5,5′,6,6′-tetrachloro-1,1′,3,3′-tetraethylbenzimidazol carbocyanine iodide) using a mitochondrial potential detection kit (Biocarta, San Diego, Calif.). Mitochondrial potential was determined as the ratio of red fluorescence (excitation 550 nm, emission 600 nm) and green fluorescence (excitation 485 nm, emission 535 nm) using a fluorescence microplate reader.

COC(=O)C1=C(C)NC(C)=C(C(=O)OC)C1c1ccccc1[N+](=O)[O-] [nifedipine]
effect on calcitriol stimulated IL-6 expression (IL-6): blocked
effect on glucose stimulated cyclin A expression (cyclin A): suppressed
effect on IL-15 release (C2C12 myotubes): promoted
effect on H2O2 induced increase in mitochondrial potential (3T3-L1 adipocytes): suppressed

— US20110038948A1, “Methods of Reducing the Production of Reactive Oxygen Species and Methods of Screening or Identifying Compounds and Compositions that Reduce the Production of Reactive Oxygen Species” (UNIVERSITY OF TENNESSEE RESEARCH FOUNDATION, priority 2005, published 2011)
